This is an account of results in publication PMC3775723.

This experiment has as its target Myc-Slimb^ΔWD40 (truncated Slimb protein lacking its WD40 domains) (Drosophila). Description: co-IP; S2 cells co-transfected with tagged Akt (Myc or Flag) and a tagged F-box protein (Flag-Slimb, Myc-Slimb^ΔWD40 or Flag-Ago); lysate immunoprecipitated, protein A/G beads, Western blot. On the technique in general: A western blot detects proteins with antibodies after separation by electrophoresis.

Results are given in words; binding and its absence hold for the method and conditions named. In cells and extracts the contact can be indirect. Sequences can lack the tags named with a protein.

B1: Flag-Akt, transfected S2 cells (protein, UniProt Q8INB9 1-611)
chain: MNYLPFVLQRRSTVVASAPAPGSASRIPESPTTTGSNIINIIYSQSTHPNSSPTSGSAEKFSWQQSWPSRTSAAPTHDSGTMSINTTFDLSSPSVTSGHALTEQTQVVKEGWLMKRGEHIKNWRQRYFVLHSDGRLMGYRSKPADSASTPSDFLLNNFTVRGCQIMTVDRPKPFTFIIRGLQWTTVIERTFAVESELERQQWTEAIRNVSSRLIDVGEVAMTPSEQTDMTDVDMATIAEDELSEQFSVQGTTCNSSGVKKVTLENFEFLKVLGKGTFGKVILCREKATAKLYAIKILKKEVIIQKDEVAHTLTESRVLKSTNHPFLISLKYSFQTNDRLCFVMQYVNGGELFWHLSHERIFTEDRTRFYGAEIISALGYLHSQGIIYRDLKLENLLLDKDGHIKVADFGLCKEDITYGRTTKTFCGTPEYLAPEVLDDNDYGQAVDWWGTGVVMYEMICGRLPFYNRDHDVLFTLILVEEVKFPRNITDEAKNLLAGLLAKDPKKRLGGGKDDVKEIQAHPFFASINWTDLVLKKIPPPFKPQVTSDTDTRYFDKEFTGESVELTPPDPTGPLGSIAEEPLFPQFSYQGDMASTLGTSSHISTSTSLASMQ
With B1, the binding entry is recorded as “no binding”.
